Results are given in words; binding and its absence hold for the method and conditions named. Some results given as binding are weak or reduced against the parent protein; the word gives no strength.
Assays:
[1] = target: human 5T4 ectodomain fused to the human IgG1-Fc domain (human) (UniProt Q13641); experiment: ELISA with 5T4 ectodomain Fc and human/mouse chimeras
[2] = target: human 5T4 ectodomain fused to the human IgG1-Fc domain (human) (UniProt Q13641); experiment: SPR (BIAcore), immobilized 5T4-Fc

By UniProt entry, the sequences of proteins in these tests, tags left out. Where a name states a change or a piece, a line headed by the entry shows the natural chain unless it says otherwise.
UniProt Q13641: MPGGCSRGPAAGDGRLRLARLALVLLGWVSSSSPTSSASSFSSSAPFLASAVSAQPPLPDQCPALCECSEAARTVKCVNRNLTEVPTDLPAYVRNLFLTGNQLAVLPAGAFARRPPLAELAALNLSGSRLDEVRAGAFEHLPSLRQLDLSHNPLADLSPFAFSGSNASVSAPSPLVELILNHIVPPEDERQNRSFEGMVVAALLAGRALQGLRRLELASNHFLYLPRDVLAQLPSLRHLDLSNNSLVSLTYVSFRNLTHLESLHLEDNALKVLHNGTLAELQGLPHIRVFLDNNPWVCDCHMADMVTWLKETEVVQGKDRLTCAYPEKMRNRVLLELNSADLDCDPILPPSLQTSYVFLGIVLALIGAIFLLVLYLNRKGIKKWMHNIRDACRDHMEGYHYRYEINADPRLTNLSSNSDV

binding [1]: binds
binding [2]: binds
B1: A3 (a mouse/human chimeric antibody) (antibody, human IgG1, kappa, V domains shown)
VH: EVQLVESGGGLVQPKGSLKLSCAASGFTFNTYAMNWVRQAPGKGLEWVARIRSKSNNYATYYADSVKDRFTISRDDSQSMLYLQMNNLKTEDTAMYYCVRQWDYDVRAMNYWGQGTLVTVSS
VL: DIVMTQSHIFMSTSVGDRVSITCKASQDVDTAVAWYQQKPGQSPKLLIYWASTRLTGVPDRFTGSGSGTDFTLTISNVQSEDLADYFCQQYSSYPYTFGQGTKLEIKR

Source: US20170319711A1
